Results from the supplement of paper PMC12823440, “Inhibitors supercharge kinase turnover through native proteolytic circuits” (Nature, 2025).
Where a name gives a salt, the structure may show the parent alone. The list shows a part of the results. The calls rarely recur for the same compound in another form.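 Kinases were expressed as nanoluciferase fusions in K562 cells and luminescence was read every 4 h between 2 and 18 h as percent of control, DMSO set to 100% and a positive control to 0%. A time point counts as decreased when the signal drops significantly (2 sigma). The hit call is the authors' own, does not follow from the count of time points alone, and its rule is not shown.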

Protein sequences, listed by entry. Tags and fused reporters are not part of them. Lines headed by an entry give the natural chain unless they say otherwise; changes in a name come on top.
UniProt O75460: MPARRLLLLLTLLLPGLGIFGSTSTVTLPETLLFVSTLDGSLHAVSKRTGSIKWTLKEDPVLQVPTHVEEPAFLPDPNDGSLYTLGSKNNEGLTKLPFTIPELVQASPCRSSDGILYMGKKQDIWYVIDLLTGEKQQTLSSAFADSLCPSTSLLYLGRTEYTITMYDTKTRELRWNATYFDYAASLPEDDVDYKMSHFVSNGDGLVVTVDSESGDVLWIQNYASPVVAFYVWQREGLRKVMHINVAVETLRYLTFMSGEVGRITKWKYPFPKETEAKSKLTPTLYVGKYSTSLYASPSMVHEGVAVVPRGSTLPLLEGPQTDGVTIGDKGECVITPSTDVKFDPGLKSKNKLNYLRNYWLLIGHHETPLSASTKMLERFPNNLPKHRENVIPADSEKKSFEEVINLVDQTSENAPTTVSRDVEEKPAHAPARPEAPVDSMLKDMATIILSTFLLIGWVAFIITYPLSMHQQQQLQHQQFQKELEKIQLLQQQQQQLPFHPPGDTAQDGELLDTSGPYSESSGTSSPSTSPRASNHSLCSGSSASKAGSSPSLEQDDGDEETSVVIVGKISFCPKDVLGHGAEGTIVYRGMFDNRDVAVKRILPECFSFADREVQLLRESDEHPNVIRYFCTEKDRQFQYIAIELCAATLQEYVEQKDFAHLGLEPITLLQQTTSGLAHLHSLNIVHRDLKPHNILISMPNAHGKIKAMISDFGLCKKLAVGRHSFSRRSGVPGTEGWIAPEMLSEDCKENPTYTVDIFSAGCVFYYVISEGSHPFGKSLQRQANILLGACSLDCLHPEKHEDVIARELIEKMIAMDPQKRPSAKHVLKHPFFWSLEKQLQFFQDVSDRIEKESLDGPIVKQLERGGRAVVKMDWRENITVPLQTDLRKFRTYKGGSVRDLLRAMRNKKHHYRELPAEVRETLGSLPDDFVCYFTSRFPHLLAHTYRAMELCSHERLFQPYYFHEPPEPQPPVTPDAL
UniProt P11362, whole entry, looked up: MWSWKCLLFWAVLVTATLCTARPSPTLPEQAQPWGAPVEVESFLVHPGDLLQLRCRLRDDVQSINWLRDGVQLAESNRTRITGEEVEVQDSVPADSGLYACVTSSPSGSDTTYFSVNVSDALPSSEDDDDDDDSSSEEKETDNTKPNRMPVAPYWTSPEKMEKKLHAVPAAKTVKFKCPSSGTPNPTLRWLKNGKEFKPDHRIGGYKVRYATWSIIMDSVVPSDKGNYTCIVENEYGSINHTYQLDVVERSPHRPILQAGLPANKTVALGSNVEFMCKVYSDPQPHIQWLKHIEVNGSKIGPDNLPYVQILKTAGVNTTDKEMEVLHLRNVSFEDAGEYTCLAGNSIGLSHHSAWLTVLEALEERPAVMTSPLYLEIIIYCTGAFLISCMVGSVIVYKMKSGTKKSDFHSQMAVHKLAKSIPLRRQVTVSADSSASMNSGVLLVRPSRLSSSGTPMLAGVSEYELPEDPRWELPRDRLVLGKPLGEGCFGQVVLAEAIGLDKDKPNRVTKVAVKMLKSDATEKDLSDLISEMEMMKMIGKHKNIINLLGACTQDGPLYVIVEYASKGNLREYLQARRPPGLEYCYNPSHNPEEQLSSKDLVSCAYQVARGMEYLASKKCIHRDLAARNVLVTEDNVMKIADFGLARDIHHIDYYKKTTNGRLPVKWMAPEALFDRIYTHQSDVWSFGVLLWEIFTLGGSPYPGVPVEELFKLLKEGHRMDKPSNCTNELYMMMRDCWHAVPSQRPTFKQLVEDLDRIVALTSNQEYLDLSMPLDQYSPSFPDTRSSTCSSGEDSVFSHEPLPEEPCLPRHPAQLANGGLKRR
UniProt P21802, whole entry, looked up: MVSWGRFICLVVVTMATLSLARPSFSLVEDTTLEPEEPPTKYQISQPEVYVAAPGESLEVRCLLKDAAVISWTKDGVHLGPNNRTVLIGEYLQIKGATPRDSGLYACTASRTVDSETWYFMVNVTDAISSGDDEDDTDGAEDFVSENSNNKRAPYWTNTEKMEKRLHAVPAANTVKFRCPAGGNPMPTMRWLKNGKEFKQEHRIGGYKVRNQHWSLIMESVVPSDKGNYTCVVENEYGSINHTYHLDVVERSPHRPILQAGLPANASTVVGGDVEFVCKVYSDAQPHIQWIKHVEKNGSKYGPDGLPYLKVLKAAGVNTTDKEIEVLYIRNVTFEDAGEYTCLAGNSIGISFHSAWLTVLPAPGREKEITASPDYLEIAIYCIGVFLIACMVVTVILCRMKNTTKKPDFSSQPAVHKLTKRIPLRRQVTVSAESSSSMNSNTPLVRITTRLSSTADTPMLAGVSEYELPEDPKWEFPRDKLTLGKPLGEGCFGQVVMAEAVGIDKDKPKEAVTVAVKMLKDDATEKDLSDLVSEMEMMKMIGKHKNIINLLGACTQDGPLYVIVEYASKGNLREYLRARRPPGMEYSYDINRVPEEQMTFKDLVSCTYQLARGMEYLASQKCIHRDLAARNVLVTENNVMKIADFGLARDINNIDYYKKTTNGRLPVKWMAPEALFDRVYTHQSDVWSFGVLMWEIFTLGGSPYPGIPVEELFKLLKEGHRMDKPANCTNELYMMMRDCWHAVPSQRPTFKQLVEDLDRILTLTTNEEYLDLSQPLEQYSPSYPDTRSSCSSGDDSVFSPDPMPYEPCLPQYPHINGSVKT
UniProt P22607, whole entry, looked up: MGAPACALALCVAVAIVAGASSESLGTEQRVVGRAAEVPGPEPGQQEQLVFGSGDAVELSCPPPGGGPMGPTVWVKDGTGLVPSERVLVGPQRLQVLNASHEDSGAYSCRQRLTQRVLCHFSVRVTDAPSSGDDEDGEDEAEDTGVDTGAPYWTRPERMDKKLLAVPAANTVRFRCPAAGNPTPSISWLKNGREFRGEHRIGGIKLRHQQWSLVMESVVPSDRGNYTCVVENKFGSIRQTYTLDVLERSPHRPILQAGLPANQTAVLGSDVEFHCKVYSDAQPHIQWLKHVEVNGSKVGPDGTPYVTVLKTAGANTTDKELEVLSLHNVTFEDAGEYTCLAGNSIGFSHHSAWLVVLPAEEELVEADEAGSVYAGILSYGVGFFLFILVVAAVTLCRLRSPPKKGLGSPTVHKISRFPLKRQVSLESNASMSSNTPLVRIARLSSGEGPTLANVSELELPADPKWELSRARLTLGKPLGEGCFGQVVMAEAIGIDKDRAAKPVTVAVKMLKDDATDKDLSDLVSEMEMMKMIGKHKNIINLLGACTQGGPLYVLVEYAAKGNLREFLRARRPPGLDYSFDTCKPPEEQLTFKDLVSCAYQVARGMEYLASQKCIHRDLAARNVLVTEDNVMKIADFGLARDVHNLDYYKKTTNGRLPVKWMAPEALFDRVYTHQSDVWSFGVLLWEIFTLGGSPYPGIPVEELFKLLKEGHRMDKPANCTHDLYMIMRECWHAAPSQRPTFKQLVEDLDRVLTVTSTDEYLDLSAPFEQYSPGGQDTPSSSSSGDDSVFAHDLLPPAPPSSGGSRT
UniProt P36888, whole entry: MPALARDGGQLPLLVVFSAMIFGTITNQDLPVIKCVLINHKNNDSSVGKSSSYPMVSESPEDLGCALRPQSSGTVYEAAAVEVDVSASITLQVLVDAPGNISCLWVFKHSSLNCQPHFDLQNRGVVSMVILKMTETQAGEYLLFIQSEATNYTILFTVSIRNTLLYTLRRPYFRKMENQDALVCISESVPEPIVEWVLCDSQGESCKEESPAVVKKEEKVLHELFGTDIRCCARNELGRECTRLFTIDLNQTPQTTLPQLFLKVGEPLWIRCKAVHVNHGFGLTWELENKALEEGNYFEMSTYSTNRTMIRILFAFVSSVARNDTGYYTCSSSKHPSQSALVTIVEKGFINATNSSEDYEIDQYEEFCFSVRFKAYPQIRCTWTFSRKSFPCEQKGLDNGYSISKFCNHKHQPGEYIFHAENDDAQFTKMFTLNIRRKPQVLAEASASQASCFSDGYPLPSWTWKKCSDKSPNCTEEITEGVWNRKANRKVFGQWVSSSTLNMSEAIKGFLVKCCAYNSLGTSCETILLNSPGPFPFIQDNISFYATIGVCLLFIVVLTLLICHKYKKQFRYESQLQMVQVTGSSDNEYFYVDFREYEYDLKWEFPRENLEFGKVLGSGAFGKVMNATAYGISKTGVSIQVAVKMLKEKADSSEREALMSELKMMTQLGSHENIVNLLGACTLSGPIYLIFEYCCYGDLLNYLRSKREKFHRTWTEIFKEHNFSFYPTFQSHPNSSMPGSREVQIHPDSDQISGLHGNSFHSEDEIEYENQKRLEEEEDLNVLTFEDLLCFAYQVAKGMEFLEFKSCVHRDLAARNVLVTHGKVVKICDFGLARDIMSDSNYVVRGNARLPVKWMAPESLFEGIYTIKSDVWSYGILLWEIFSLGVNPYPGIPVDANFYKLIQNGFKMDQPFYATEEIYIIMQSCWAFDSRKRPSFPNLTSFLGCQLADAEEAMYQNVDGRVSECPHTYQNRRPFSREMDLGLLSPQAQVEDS
UniProt P06241, whole entry, looked up: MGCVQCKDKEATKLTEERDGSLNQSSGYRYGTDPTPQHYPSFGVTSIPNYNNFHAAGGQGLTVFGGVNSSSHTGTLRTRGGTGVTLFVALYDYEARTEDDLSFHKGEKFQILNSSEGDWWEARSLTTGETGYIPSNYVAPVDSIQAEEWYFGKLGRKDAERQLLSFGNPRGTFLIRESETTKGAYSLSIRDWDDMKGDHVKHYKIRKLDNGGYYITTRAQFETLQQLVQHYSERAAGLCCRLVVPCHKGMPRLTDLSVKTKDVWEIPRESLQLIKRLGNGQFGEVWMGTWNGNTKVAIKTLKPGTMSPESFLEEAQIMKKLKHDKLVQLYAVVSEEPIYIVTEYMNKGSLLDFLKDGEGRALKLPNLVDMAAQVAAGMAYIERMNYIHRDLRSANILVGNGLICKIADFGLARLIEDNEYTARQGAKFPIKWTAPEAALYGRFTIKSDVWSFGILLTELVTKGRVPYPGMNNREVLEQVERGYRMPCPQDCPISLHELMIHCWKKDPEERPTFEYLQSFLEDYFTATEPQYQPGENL
UniProt P14616: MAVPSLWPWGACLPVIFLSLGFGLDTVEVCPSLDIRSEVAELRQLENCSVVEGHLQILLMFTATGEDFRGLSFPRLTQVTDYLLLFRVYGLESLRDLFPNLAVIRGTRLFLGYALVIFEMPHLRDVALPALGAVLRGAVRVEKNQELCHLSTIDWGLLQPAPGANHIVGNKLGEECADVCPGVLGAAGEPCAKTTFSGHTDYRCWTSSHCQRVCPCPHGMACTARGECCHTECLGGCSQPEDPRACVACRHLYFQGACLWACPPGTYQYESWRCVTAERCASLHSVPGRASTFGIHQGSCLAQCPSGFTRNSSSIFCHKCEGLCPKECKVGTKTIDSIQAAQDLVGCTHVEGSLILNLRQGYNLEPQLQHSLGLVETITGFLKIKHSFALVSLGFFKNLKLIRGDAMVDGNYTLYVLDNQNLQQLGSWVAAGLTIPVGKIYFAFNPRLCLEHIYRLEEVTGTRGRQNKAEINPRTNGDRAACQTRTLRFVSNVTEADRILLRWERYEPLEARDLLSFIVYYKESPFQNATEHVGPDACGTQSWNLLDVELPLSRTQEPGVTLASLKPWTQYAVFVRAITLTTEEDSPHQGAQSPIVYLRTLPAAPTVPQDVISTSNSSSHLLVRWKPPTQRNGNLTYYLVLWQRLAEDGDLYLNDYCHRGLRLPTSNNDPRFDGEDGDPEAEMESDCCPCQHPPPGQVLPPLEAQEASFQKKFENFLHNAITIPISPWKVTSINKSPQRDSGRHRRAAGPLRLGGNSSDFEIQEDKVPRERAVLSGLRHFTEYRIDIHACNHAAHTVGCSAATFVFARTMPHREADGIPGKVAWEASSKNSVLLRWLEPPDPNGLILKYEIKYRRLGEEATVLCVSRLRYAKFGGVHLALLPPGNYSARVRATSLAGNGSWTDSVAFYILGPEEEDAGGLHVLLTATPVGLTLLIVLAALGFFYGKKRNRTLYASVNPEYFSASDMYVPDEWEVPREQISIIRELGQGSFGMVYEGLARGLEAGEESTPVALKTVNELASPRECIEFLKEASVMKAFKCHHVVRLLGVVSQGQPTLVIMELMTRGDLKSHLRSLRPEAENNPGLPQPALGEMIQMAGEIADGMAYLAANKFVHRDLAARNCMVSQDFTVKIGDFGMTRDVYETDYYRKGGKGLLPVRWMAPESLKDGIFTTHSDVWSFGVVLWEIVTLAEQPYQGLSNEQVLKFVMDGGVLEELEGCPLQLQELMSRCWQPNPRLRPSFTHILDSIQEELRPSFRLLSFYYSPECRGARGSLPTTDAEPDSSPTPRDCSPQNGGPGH

How the values were obtained:
Assay in all cases: kinase-Nluc reporter destabilization hit call (1 = scored as downregulated) (binary); higher = compound decreases kinase abundance
Settings in all cases: K562; 2-18 h
ERN1 = ERN1 (UniProt O75460)
FGFR1 = FGFR1 (UniProt P11362)
FGFR2 = FGFR2 (UniProt P21802)
FGFR3 = FGFR3 (UniProt P22607)
FGR = FGR (UniProt P09769)
FLT3 = FLT3 (UniProt P36888)
FYN = FYN (UniProt P06241)
GSK3A = GSK3A (UniProt P49840)
HER2 = HER2 (UniProt P04626)
INSRR = INSRR (UniProt P14616)

Measured: kinase-Nluc reporter destabilization hit call

CCCCCCCCCCCCC/C=C/[C@@H](O)[C@@H](N)CO [D-erythro-Sphingosine] (2.5 µM)
inactive: ERN1 = 0 | FGFR1 = 0 | FGFR2 = 0 | FGFR3 = 0 | FGR 0 | FLT3 = 0 | FYN 0 | GSK3A 0 | HER2 = 0 | INSRR 0

CC1CCc2c(cc(Br)c(F)c2Br)N1C=O (stereo not given) (10 µM)
inactive: ERN1 = 0 | FGFR1 = 0 | FGFR2 = 0 | FGFR3 = 0 | FGR 0 | FLT3 = 0 | FYN 0 | GSK3A 0 | HER2 = 0 | INSRR 0

Cc1ccc(C(=O)Nc2ccc(Oc3cc4cnn(C)c4cc3-c3cn[nH]c3)c(F)c2)c(=O)n1-c1ccc(F)cc1 [Merestinib dihydrochloride] (2.5 µM)
inactive: ERN1 = 0 | FGFR1 = 0 | FGFR2 = 0 | FGFR3 = 0 | FGR 0 | FLT3 = 0 | FYN 0 | GSK3A 0 | HER2 = 0 | INSRR 0

c1ccc(-c2[nH]ncc2-c2ccnc3ccccc23)nc1 (10 µM)
inactive: ERN1 = 0 | FGFR1 = 0 | FGFR2 = 0 | FGFR3 = 0 | FGR 0 | FLT3 = 0 | FYN 0 | GSK3A 0 | HER2 = 0 | INSRR 0

O=C1NC(=O)/C(=C\c2cccc(C(F)(F)F)c2)S1 (2.5 µM)
inactive: ERN1 = 0 | FGFR1 = 0 | FGFR2 = 0 | FGFR3 = 0 | FGR 0 | FLT3 = 0 | FYN 0 | GSK3A 0 | HER2 = 0 | INSRR 0

NC(=O)c1ccc2[nH]ccc2c1 (10 µM)
inactive: ERN1 = 0 | FGFR1 = 0 | FGFR2 = 0 | FGFR3 = 0 | FGR 0 | FLT3 = 0 | FYN 0 | GSK3A 0 | HER2 = 0 | INSRR 0

C[C@@H]1CC[C@@H](Nc2nc(NC(C)(C)C)ncc2C(N)=O)C[C@H]1O (10 µM)
inactive: ERN1 = 0 | FGFR1 = 0 | FGFR2 = 0 | FGFR3 = 0 | FGR 0 | FLT3 = 0 | FYN 0 | GSK3A 0 | HER2 = 0 | INSRR 0

C=CC(=O)Nc1cccc(Nc2nc(Nc3ccc(N4CCN(C(C)=O)CC4)cc3OC)ncc2C(F)(F)F)c1 [Rociletinib] (10 µM)
inactive: ERN1 = 0 | FGFR1 = 0 | FGFR2 = 0 | FGFR3 = 0 | FGR 0 | FLT3 = 0 | FYN 0 | GSK3A 0 | HER2 = 0 | INSRR 0

CC(=O)c1c(C)cc2cccc(O)c2c1O [Nepodin] (10 µM)
inactive: ERN1 = 0 | FGFR1 = 0 | FGFR2 = 0 | FGFR3 = 0 | FGR 0 | FLT3 = 0 | FYN 0 | GSK3A 0 | HER2 = 0 | INSRR 0

COc1cc2nccc(Oc3ccc(NC(=O)NC4CC4)c(Cl)c3)c2cc1C(N)=O [Lenvatinib] (10 µM)
inactive: ERN1 = 0 | FGFR1 = 0 | FGFR2 = 0 | FGFR3 = 0 | FGR 0 | FLT3 = 0 | FYN 0 | GSK3A 0 | HER2 = 0 | INSRR 0

CN1CCC(c2cc(-c3ccncc3)c(-c3ccc(F)cc3)[nH]2)CC1 (10 µM)
inactive: ERN1 = 0 | FGFR1 = 0 | FGFR2 = 0 | FGFR3 = 0 | FGR 0 | FLT3 = 0 | FYN 0 | GSK3A 0 | HER2 = 0 | INSRR 0

OCCn1cc(-c2ccc3c(c2)CC/C3=N\O)c(-c2ccncc2)n1 (10 µM)
inactive: ERN1 = 0 | FGFR1 = 0 | FGFR2 = 0 | FGFR3 = 0 | FGR 0 | FLT3 = 0 | FYN 0 | GSK3A 0 | HER2 = 0 | INSRR 0

Nc1nc(F)nc2c1ncn2[C@@H]1O[C@H](CO)[C@@H](O)[C@@H]1O [Fludarabine] (10 µM)
inactive: ERN1 = 0 | FGFR1 = 0 | FGFR2 = 0 | FGFR3 = 0 | FGR 0 | FLT3 = 0 | FYN 0 | GSK3A 0 | HER2 = 0 | INSRR 0

CC(C)(C)c1cc(O)ccc1O (10 µM)
inactive: ERN1 = 0 | FGFR1 = 0 | FGFR2 = 0 | FGFR3 = 0 | FGR 0 | FLT3 = 0 | FYN 0 | GSK3A 0 | HER2 = 0 | INSRR 0

CC[C@@H](Oc1nc(Oc2cc(C)cc(-c3cccc(CN)c3)c2)c(F)cc1F)C(=O)O (10 µM)
inactive: ERN1 = 0 | FGFR1 = 0 | FGFR2 = 0 | FGFR3 = 0 | FGR 0 | FLT3 = 0 | FYN 0 | GSK3A 0 | HER2 = 0 | INSRR 0

Cn1cnc2c(F)c(Nc3ccc(Br)cc3Cl)c(C(=O)NOCCO)cc21 [Selumetinib (sulfate)] (10 µM)
inactive: ERN1 = 0 | FGFR1 = 0 | FGFR2 = 0 | FGFR3 = 0 | FGR 0 | FLT3 = 0 | FYN 0 | GSK3A 0 | HER2 = 0 | INSRR 0

FC(F)(F)c1ccc(CNc2ccc(Cc3c[nH]c4ncccc34)cn2)cc1 (10 µM)
inactive: ERN1 = 0 | FGFR1 = 0 | FGFR2 = 0 | FGFR3 = 0 | FGR 0 | FLT3 = 0 | FYN 0 | GSK3A 0 | HER2 = 0 | INSRR 0

C=CC(=O)Nc1cccc(Nc2nc(Nc3ccc(N4CCN(C(C)=O)CC4)cc3OC)ncc2C(F)(F)F)c1 [Rociletinib hydrobromide] (10 µM)
inactive: ERN1 = 0 | FGFR1 = 0 | FGFR2 = 0 | FGFR3 = 0 | FGR 0 | FLT3 = 0 | FYN 0 | GSK3A 0 | HER2 = 0 | INSRR 0

CNc1nc(Nc2ccc(C(=O)N3CCOCC3)cc2OC)nc2[nH]cc(Cl)c12 (2.5 µM)
inactive: ERN1 = 0 | FGFR1 = 0 | FGFR2 = 0 | FGFR3 = 0 | FGR 0 | FLT3 = 0 | FYN 0 | GSK3A 0 | HER2 = 0 | INSRR 0

C[C@@H](c1ccc(-c2ccccc2)c(F)c1)c1cc(NC(=N)N2CCOCC2)on1 [Rimacalib] (10 µM)
inactive: ERN1 = 0 | FGFR1 = 0 | FGFR2 = 0 | FGFR3 = 0 | FGR 0 | FLT3 = 0 | FYN 0 | GSK3A 0 | HER2 = 0 | INSRR 0

C=C1C(=O)O[C@H]2C[C@H](C)C(/C=C/C(C)=O)=CC[C@H]12 [Xanthatin] (2.5 µM)
inactive: ERN1 = 0 | FGFR1 = 0 | FGFR2 = 0 | FGFR3 = 0 | FGR 0 | FLT3 = 0 | FYN 0 | GSK3A 0 | HER2 = 0 | INSRR 0

O=S(=O)(NCCCN1c2ccccc2CCc2ccc(Cl)cc21)c1ccc(OC(F)(F)F)cc1 (2.5 µM)
inactive: ERN1 = 0 | FGFR1 = 0 | FGFR2 = 0 | FGFR3 = 0 | FGR 0 | FLT3 = 0 | FYN 0 | GSK3A 0 | HER2 = 0 | INSRR 0

C=C(CC[C@@H](C(=O)O)[C@H]1[C@H](O)C[C@@]2(C)C3=C(CC[C@]12C)[C@@]1(C)CC[C@H](OC(C)=O)C(C)(C)[C@@H]1CC3)C(C)C [Pachymic acid] (10 µM)
inactive: ERN1 = 0 | FGFR1 = 0 | FGFR2 = 0 | FGFR3 = 0 | FGR 0 | FLT3 = 0 | FYN 0 | GSK3A 0 | HER2 = 0 | INSRR 0

Cc1cc(O)c2c(c1)C(=O)c1cc(O)cc(O)c1C2=O [Emodin] (10 µM)
inactive: ERN1 = 0 | FGFR1 = 0 | FGFR2 = 0 | FGFR3 = 0 | FGR 0 | FLT3 = 0 | FYN 0 | GSK3A 0 | HER2 = 0 | INSRR 0

CCOC(=O)N1CCN(C(=O)[C@H](Cc2cccc(C(=N)N)c2)NS(=O)(=O)c2c(C(C)C)cc(C(C)C)cc2C(C)C)CC1 (10 µM)
inactive: ERN1 = 0 | FGFR1 = 0 | FGFR2 = 0 | FGFR3 = 0 | FGR 0 | FLT3 = 0 | FYN 0 | GSK3A 0 | HER2 = 0 | INSRR 0

2 entries drawn at random from the list so far, as already listed:
C=C1C(=O)O[C@H]2C[C@H](C)C(/C=C/C(C)=O)=CC[C@H]12 [Xanthatin] (2.5 µM)
inactive: ERN1 = 0 | FGFR1 = 0 | FGFR2 = 0 | FGFR3 = 0 | FGR 0 | FLT3 = 0 | FYN 0 | GSK3A 0 | HER2 = 0 | INSRR 0

CCOC(=O)N1CCN(C(=O)[C@H](Cc2cccc(C(=N)N)c2)NS(=O)(=O)c2c(C(C)C)cc(C(C)C)cc2C(C)C)CC1 (10 µM)
inactive: ERN1 = 0 | FGFR1 = 0 | FGFR2 = 0 | FGFR3 = 0 | FGR 0 | FLT3 = 0 | FYN 0 | GSK3A 0 | HER2 = 0 | INSRR 0

Additional records follow.

Cc1ccc(CNc2ncnc3ccc(-c4ccc(CO)o4)cc23)o1 (10 µM)
inactive: ERN1 = 0 | FGFR1 = 0 | FGFR2 = 0 | FGFR3 = 0 | FGR 0 | FLT3 = 0 | FYN 0 | GSK3A 0 | HER2 = 0 | INSRR 0

C=CC(=O)Nc1cc(Nc2ncc(Cl)c(-c3c[nH]c4ccccc34)n2)c(OC)cc1N(C)CCN(C)C [Mutant EGFR inhibitor] (2.5 µM)
inactive: ERN1 = 0 | FGFR1 = 0 | FGFR2 = 0 | FGFR3 = 0 | FGR 0 | FLT3 = 0 | FYN 0 | GSK3A 0 | HER2 = 0 | INSRR 0

O=C(N/N=C/c1coc2ccccc2c1=O)c1cccnc1 (10 µM)
inactive: ERN1 = 0 | FGFR1 = 0 | FGFR2 = 0 | FGFR3 = 0 | FGR 0 | FLT3 = 0 | FYN 0 | GSK3A 0 | HER2 = 0 | INSRR 0

CC1=C(C(=O)O)N2C(=O)[C@@H](NC(=O)[C@H](N)C3=CCC=CC3)[C@H]2SC1 [Cephradine] (10 µM)
inactive: ERN1 = 0 | FGFR1 = 0 | FGFR2 = 0 | FGFR3 = 0 | FGR 0 | FLT3 = 0 | FYN 0 | GSK3A 0 | HER2 = 0 | INSRR 0

Cc1cccc(Oc2cnc(=O)[nH]c2)c1 [Tolimidone] (10 µM)
inactive: ERN1 = 0 | FGFR1 = 0 | FGFR2 = 0 | FGFR3 = 0 | FGR 0 | FLT3 = 0 | FYN 0 | GSK3A 0 | HER2 = 0 | INSRR 0
